Results taken from PubChem BioAssay AID2685 (National Center for Advancing Translational Sciences (NCATS), 2010).
Some of the results follow. The main result of the screen is listed elsewhere. These columns were measured beside it and carry no call. Most of these compounds were active or inconclusive in the main read-out, so they are no random draw. Potencies come from curve fits of mixed quality, noted in brackets.

Test: qHTS Assay for Lipid Storage Modulators in Drosophila S3 Cells;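 for cell number change: cells counted by Cell Tracker Red CMTPX staining in the red channel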
Details: BODIPY lipid droplet fluorescence, 18-24 h; for cell number change: measured here: cell count max response, cells fed with added oleic acid
Procedure, shortened: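 Laser-scanning cytometry quantifies lipid droplet accumulation (500–530 nm total intensity; droplet/cell object ratio) in oleic acid-fed (400 uM added) Drosophila S3 cells treated with a concentration series. 20 uM Triacsin C defined 100% inhibition.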

[1] = measured here: lipid fluorescence (Fed channel) AC50, cells fed with added oleic acid
[2] = measured here: cell number channel AC50, cells fed with added oleic acid

Compound | cell number change | AC50 [1] | AC50 [2]
O=C(CCN1CCCCO1)N1CCCC(Nc2ccc(F)c(F)c2)C1 (configuration not stated) | -16.1% | 0.116 µM [falling, full curve] | –
NC(=S)Cc1ccc(Cl)cc1Cl | 12.5% | 2.31 µM [rising, single point] | –
COCCN1CSC(=S)N(Cc2ccco2)C1 | -19.7% | – | –
NC(=O)C1CCN(Cc2nc(-c3cccs3)no2)CC1 | -28.3% | 0.731 µM [falling, full curve] | 0.0058 µM [falling, full curve, poor fit]
NC(=O)C(=O)N/N=C/c1c(F)c(F)c(F)c(F)c1F | -1.19% | 8.2 µM [falling, partial curve] | 6.51 µM [rising, single point]
COc1ccc(Nc2nnc(-c3ccc(C(=O)NCCO)cc3)c3ccccc23)cc1 | -33.4% | – | –
COc1ccc(CCNC(=O)COC(=O)c2ccc(Br)o2)cc1 | 10.4% | – | –
Cc1cc2c(c(=O)n1Cc1ccccn1)C(c1ccc3c(c1)OCO3)C(C#N)=C(N)O2 (configuration not stated) | -11.1% | 0.259 µM [rising, full curve] | –
CC(C)(C)c1cc(NC(=O)CSc2nncs2)n(-c2ccccc2)n1 | 17.7% | – | –
Cc1ccc(S(=O)(=O)N2CCN(CC(O)c3ccccc3)CC2)cc1 (configuration not stated) | -111% | – | 23.1 µM [falling, single point]
N#CC(C(=O)c1ccc(S(=O)(=O)N2CCCCCC2)cc1)c1nc2ccccc2[nH]1 (configuration not stated) | -30.1% | – | 29.1 µM [falling, single point]
CC1(C)N=C(N)NC(Nc2cccc(Br)c2)=N1 | -41.7% | 16.4 µM [falling, partial curve] | 0.92 µM [falling, full curve]
CC(=O)NCC(=O)NC1(C(=O)NC2CCCC2)CCCCC1 | -20.6% | – | 6.51 µM [falling, single point]
COC(=O)C1=C(NC(=O)c2ccc(C)c(C)c2)CCS1 | -17.2% | 29.1 µM [rising, single point] | –
Cc1cc2nc(-c3cccc(NC(=O)c4ccc(Br)o4)c3)oc2cc1C | – | 0.651 µM [falling, single point] | –
NC(=O)C1(S(=O)(=O)c2ccccc2)CCCCC1 | -13.3% | – | –
CCCCc1nc2ccccc2c(=O)n1NC(=O)c1c(O)c2cccc3c2n(c1=O)CC3 | 3.31% | – | –
COc1ccc(C(=O)Nc2ccc(Br)cn2)cc1S(=O)(=O)N1CCOCC1 | -8.68% | 29.1 µM [rising, single point] | –
Cc1ccc(C(=O)NCCCN2CCOCC2)c(C)c1 | -2.12% | 0.58 µM [falling, single point] | –
COc1cc(C=O)ccc1OCCCCOc1ccccc1[N+](=O)[O-] | 19.2% | 7.31 µM [rising, full curve, poor fit] | –

Quoted at random: 2 entries already listed, in no set order.
Compound | cell number change | AC50 [1] | AC50 [2]
CCCCc1nc2ccccc2c(=O)n1NC(=O)c1c(O)c2cccc3c2n(c1=O)CC3 | 3.31% | – | –
CC(C)(C)c1cc(NC(=O)CSc2nncs2)n(-c2ccccc2)n1 | 17.7% | – | –

The results go on.

Compound | cell number change | AC50 [1] | AC50 [2]
COc1ccc(N=C2SCC(c3ccc([N+](=O)[O-])cc3)=NN2CCO)cc1 | -0.727% | 0.461 µM [falling, single point] | 0.461 µM [falling, single point]
CC(=O)N1CCC(N(CCN2CCOCC2)C(=S)Nc2cccc(C)c2)CC1 | -3.95% | 4.61 µM [falling, full curve, poor fit] | –
CCOc1cc(N2CCOCC2)c(OCC)cc1NC(=O)COC(=O)/C=C/c1ccc(OC(F)F)cc1 | 11.8% | – | –
COc1cccc(Nc2nc3cc(OC)ccc3cc2C#N)c1 | 79.6% | 4.11 µM [rising, partial curve] | 13 µM [rising, partial curve]
C/C=C\C=C/C(=O)Nc1cccc(C2=NOC3(C2)C[C@@H](C(N)=O)N(C(=O)/C=C/C=C\C)C3)c1 (some centres not stated) | 17.6% | 29.1 µM [rising, single point] | –
C=C(C)Cn1c(SCC(=O)N/N=C/c2cccc(O)c2)nc2ccccc2c1=O | – | 0.0058 µM [falling, full curve, poor fit] | –
COc1cc2c(cc1OC)C(c1ccccc1N)=NCC2 | 15.9% | 4.61 µM [falling, single point] | 5.8 µM [falling, single point]
COc1ccc(CC(=O)N2CCC(Nc3nc4ccccc4n3Cc3ccc(F)cc3)CC2)cc1 | -29% | 16.4 µM [falling, single point] | –
CSc1ccc(Cn2nnc(C(=O)NCc3ccccc3)c2N)cc1 | 34.8% | 0.58 µM [rising, single point] | 0.206 µM [rising, full curve, poor fit]
O=C(CN1CCOCC1)Nc1ccccc1Cl | -44.9% | 2.59 µM [falling, full curve] | 2.91 µM [falling, full curve]
N#CC1=C(N)C(C#N)(C#N)C(c2ccncc2)C2CN(C(=O)OCc3ccccc3)CC=C12 (configuration not stated) | -24.8% | 6.51 µM [falling, partial curve] | –
CCC1S/C(=C(\C#N)C(=O)NCc2ccco2)N(c2ccc(Br)cc2)C1=O (configuration not stated) | 30.4% | 6.51 µM [rising, single point] | 11.6 µM [rising, partial curve]
CNC(=O)COc1coc(CN2CCN(c3ccc(OC)cc3)CC2)cc1=O | 14.4% | 6.51 µM [rising, partial curve, poor fit] | –
N#Cc1c(-c2cccc(Cl)c2)[nH]c(=S)[nH]c1=O | 10.5% | 0.58 µM [rising, single point] | –
COc1ccc(CCn2c(N)c(S(=O)(=O)c3cccs3)c3nc4ccccc4nc32)cc1OC | -19.9% | – | 0.231 µM [falling, full curve, poor fit]
CCOC(=O)N1C2=NC(C(=O)OC)=C(C(=O)OC)[C@@H]3Nc4ccccc4[C@]23C[C@H]1C(=O)OC | -21.4% | 6.51 µM [falling, single point] | –
COC(=O)C(C)NC(=O)C(C)NC(=O)OCc1ccccc1 (configuration not stated) | -111% | – | 29.1 µM [falling, single point]
CN(C)/C=N/c1cc(=O)n(C)c(=O)n1CC1CC1 | 19.2% | 14.6 µM [rising, partial curve] | –
CC(C)(C)CN1CCNC(=O)C1CC(=O)NCCc1ccccc1F (configuration not stated) | 3.11% | 0.0411 µM [falling, full curve, poor fit] | –
C=CCS(=O)(=O)N1CCCC(C(=O)c2cccc(Cl)c2)C1 (configuration not stated) | 8.97% | – | –

One compound at a time (already shown).
`N#Cc1c(-c2cccc(Cl)c2)[nH]c(=S)[nH]c1=O` as listed: cell number change: 10.5%; AC50 [1]: 0.58 µM [rising, single point]
`CCC1S/C(=C(\C#N)C(=O)NCc2ccco2)N(c2ccc(Br)cc2)C1=O` (configuration not stated) as listed: cell number change: 30.4%; AC50 [1]: 6.51 µM [rising, single point]; AC50 [2]: 11.6 µM [rising, partial curve]
`C/C=C\C=C/C(=O)Nc1cccc(C2=NOC3(C2)C[C@@H](C(N)=O)N(C(=O)/C=C/C=C\C)C3)c1` (some centres not stated) as listed: cell number change: 17.6%; AC50 [1]: 29.1 µM [rising, single point]

The list goes on:

Compound | cell number change | AC50 [1] | AC50 [2]
COC(=O)c1ccc(C23CC4(C2)[C@H](CN(Cc2ccc(-c5ccccc5)cc2)[C@@H]4c2ccccc2)C3c2ccc(Cl)nc2)cc1 (some centres not stated) | 12% | 8.2 µM [rising, partial curve, poor fit] | –
O=C(Cn1c(COc2ccccc2)nc2ccccc21)Nc1cc(Cl)ccc1Cl | -23.9% | – | 0.651 µM [falling, full curve, poor fit]
O=C(O)Cn1c(=O)c2c3c(sc2n(Cc2ccc(F)cc2)c1=O)CCCC3 | 9.74% | 0.92 µM [falling, single point] | –
COC(=O)Cn1cnc2scc(-c3ccc(C)c(C)c3)c2c1=O | 5.07% | 0.058 µM [rising, full curve, poor fit] | –
CCSc1nc2c(c(=O)[nH]1)C(C(C)C)C(C#N)=C(N)O2 (configuration not stated) | 19.5% | 0.13 µM [rising, full curve] | –
O=C(COC(=O)CNC(=O)c1ccc([N+](=O)[O-])o1)Nc1ncc(C(F)(F)F)cc1Cl | -5.56% | 1.84 µM [falling, single point] | –
CN(C(=O)CSc1nnc(-c2ccc(OC(F)F)cc2)n1N)C1CCS(=O)(=O)C1 (configuration not stated) | -28% | 0.259 µM [falling, full curve] | –
O=[N+]([O-])c1ccc(N2CCNCC2)c(S(=O)(=O)N2CCOCC2)c1 | -1.66% | 0.731 µM [falling, single point] | –
O=C(OCc1nnc(-c2ccccc2)o1)c1cccc(S(=O)(=O)N2CCOCC2)c1 | 133% | 29.1 µM [rising, single point] | 29.1 µM [rising, single point]
CC(=O)N1CCN(C(=O)c2cccc(S(=O)(=O)N3CCN(c4ccccc4)CC3)c2)CC1 | -34.3% | 0.411 µM [falling, full curve, poor fit] | 29.1 µM [falling, single point]
CCOC(=O)c1[nH]c(C)c(C(=O)OCc2ccccc2F)c1C | 13.8% | – | –
O=C(Nc1cccnc1Cl)c1cccc(S(=O)(=O)N2CCOCC2)c1 | 4.7% | – | –
Cc1cc(O)cc(O)c1C=NCc1ccco1 | -52.1% | 29.1 µM [falling, single point] | 29.1 µM [falling, single point]
CCN=C1SC(CC(=O)NC(N)=O)C(=O)N1CC (configuration not stated) | -6.82% | 2.91 µM [falling, partial curve] | –
COc1ccccc1CC(NC(C)=O)C(=O)NC1CCN(C(=O)Nc2cccc(F)c2)CC1 (configuration not stated) | -4.03% | 14.6 µM [falling, partial curve, poor fit] | –
COc1ccc(C2c3c(ncn(CCN4CCOCC4)c3=N)Oc3ccc4ccccc4c32)cc1 (configuration not stated) | -9.76% | 2.31 µM [rising, partial curve] | 1.03 µM [rising, partial curve]
Cc1cc(O)c(C(=O)/C=C/c2ccccc2Br)c(=O)o1 | – | 6.51 µM [falling, partial curve, poor fit] | –
NS(=O)(=O)c1ccc(NC(=O)CSc2ncnc3ccccc23)cc1 | -29.4% | 2.31 µM [falling, full curve] | 2.91 µM [falling, full curve, poor fit]
